Screen size: about 340,000 compounds; about 4,500 (1.3%) were called active. Inconclusive results, whose numbers are uncertain, are shown with a selection of clear calls. The call rests on the fitted dose curve; in most records, active means well fitted inhibition curve with a large enough effect; inconclusive means small, poorly fitted or top-dose-only effect, or another doubt; inactive means no such curve, though single readings can be large or run the other way. Potencies of inconclusive entries are doubtful fits and often do not repeat.
These compounds were tested against DNA polymerase beta (Homo sapiens) (UniProt P06746) (assay: qHTS Assay for Inhibitors of DNA Polymerase Beta). Conditions: Pol beta primer extension/strand displacement, fluorescence kinetic; activity change, negative = inhibition: at 114 µM (top of the series).
Method in brief: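 Kinetic readout of DNA synthesis with strand displacement by Pol beta. Compound and 10 nM enzyme sit 15 min at room temperature; 50 nM substrate starts the reaction, read immediately and at 10 min.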
With `COc1ccc(-c2nnc(SCC(=O)N(C)C3CCCCC3)o2)cc1OC` the Potency was inconclusive: 100 µM [inhibitor, single point].
With `CC(C)(C)c1cc(CN2CCN(CCO)CC2)cc(C(C)(C)C)c1O` the Potency was active: 0.891 µM.
In the case of `COc1ccc(Cl)cc1N(C)C(=O)c1cc2c(=O)oc3ccc(C)cc3c2s1`, the “activity change, negative = inhibition” value is reported as inactive: -16.4%.
For `COc1cccc(CN2CC(C(=O)NCc3ccc(Cl)s3)CCC2=O)c1` (stereo not drawn), the Potency was inconclusive: 0.708 µM [inhibitor, full curve, poor fit].
For `CCOc1ccccc1NC(=O)CSc1nnc(-c2ccccc2Cl)n1Cc1ccco1`, the Potency was inconclusive: 89.1 µM [inhibitor, single point].
For `CCOc1ccc(C(=O)C2CCN(CC(=O)Nc3nccs3)CC2)cc1`, the “activity change, negative = inhibition” value was inactive: -2.61%.
For `O=C(CCc1ccc(S(=O)(=O)N2CCOCC2)cc1)N/N=C/c1ccc(F)cc1F`, the “activity change, negative = inhibition” value was inactive: 6.01%.
`CCc1ccc(NC(=O)CCNS(=O)(=O)c2ccc3c(c2)oc(=O)n3C)cc1` was tested, and the “activity change, negative = inhibition” value was inactive: -23.8%.
`CCOC(=O)c1cnc2c(c(C)nn2CC)c1NC1CC1` was tested, and the Potency was inconclusive: 89.1 µM [inhibitor, single point].
With `Cc1ccc(C)c(NC(=O)Cn2cc(C(=O)c3cccs3)c3ccccc32)c1` the Potency was inconclusive: 7.08 µM [inhibitor, full curve].
With `CC(C)NC(=O)CSc1nc2sccc2c(=O)n1-c1ccccc1` the Potency was inconclusive: 50.1 µM [inhibitor, partial curve, poor fit].
With `Cc1ccc(NS(=O)(=O)c2cc(-c3cnc(C4CC4)o3)ccc2C)cc1Cl` the “activity change, negative = inhibition” value was inactive: -14.2%.
In the case of `Nc1c(C(=O)Nc2ccccc2F)sc2nc3c(cc12)CCCCCC3`, the Potency is reported as inconclusive: 15.8 µM [inhibitor, single point].
For `COc1ccccc1C(=O)N(CCC1CCCN1C)c1nc2ccccc2s1` (stereo not drawn), the Potency was inconclusive: 89.1 µM [inhibitor, single point].
With `CCOC(=O)c1c(NC(=O)c2cc3nc(-c4ccc(Br)cc4)cc(C(F)(F)F)n3n2)sc(C(C)=O)c1C` the “activity change, negative = inhibition” value was inactive: -2.71%.
`COc1ccc(CCNC(=O)c2nc(-c3cccs3)no2)cc1OC` was tested, and the Potency was inconclusive: 39.8 µM [inhibitor, single point].
With `COc1ccc(Cl)cc1CNCCSc1nnnn1-c1ccccc1` the Potency was inconclusive: 100 µM [inhibitor, single point].
`O=C(O)c1ccc(Cl)c(S(=O)(=O)N2CCCC2)c1` was tested, and the activity change, negative = inhibition was inconclusive: -79.2% [inhibitor].
`O=C(O)C1CCN(C(=O)CCc2ccccc2)CC1` was tested, and the Potency was active: 50.1 µM.
With `COc1ccc(C2=NOC(C(=O)NCc3ccco3)C2)cc1` (stereo not drawn) the “activity change, negative = inhibition” value was inactive: -18.7%.
In the case of `COc1ccc(C(=O)NNc2ncnc3c2cnn3-c2cccc(Cl)c2)cc1OC`, the “activity change, negative = inhibition” value is reported as inactive: 1.65%.
In the case of `Cc1cc(N2C(=O)C(O)=C(C(=O)c3cc4ccccc4o3)C2c2ccc(Br)cc2)no1` (stereo not drawn), the “activity change, negative = inhibition” value is reported as inactive: -2.21%.
`CCOc1ccccc1NC(=O)Nc1cccc(S(N)(=O)=O)c1` was tested, and the Potency was inconclusive: 79.4 µM [inhibitor, single point].
`CCCNCC1C(Oc2ccc(Cl)cc2)C(=O)N1c1ccccc1C` (stereo not drawn) was tested, and the Potency was inconclusive: 89.1 µM [inhibitor, single point].
In the case of `COc1ccc(OC)c(CNC(=O)C2CCCCN2S(=O)(=O)c2ccc(F)cc2)c1` (stereo not drawn), the “activity change, negative = inhibition” value is reported as inactive: -9.34%.
With `Cc1ccc2[nH]c(C(=O)N3CCN(C(c4ccccc4)c4ccccc4)CC3)cc2c1` the “activity change, negative = inhibition” value was inactive: 3.03%.
For `CCCCC1CCC(C(=O)N2CCOCC2)CC1` (stereo not drawn), the Potency was inconclusive: 79.4 µM [inhibitor, single point].
For `O=C(Nc1ccc(Cl)c([N+](=O)[O-])c1)c1ccncc1`, the “activity change, negative = inhibition” value was inactive: 9.35%.
With `COc1ccc(C2=CSC3=NCCN23)cc1Cl` the Potency was inconclusive: 63.1 µM [inhibitor, single point].
`COc1ccccc1NC(=O)CN1C(=O)c2ccccc2Sc2ccc(C(=O)N3CCCC3)cc21` was tested, and the Potency was active: 50.1 µM.
For `CCc1ccccc1NC(=O)N1CC(C)Sc2ccccc21` (stereo not drawn), the “activity change, negative = inhibition” value was inactive: 3.01%.
With `COC(=O)c1ccccc1NC(=O)c1cc2nc(C3CC3)cc(C(F)(F)F)n2n1` the Potency was active: 50.1 µM.
With `O=C(O)Cc1ccc(C(=O)CSc2ccccc2)s1` the Potency was active: 15.8 µM.
For `CCc1nnc2c(Nc3ccc(N(CC)CC)cc3C)nc3ccccc3n12`, the “activity change, negative = inhibition” value was inactive: 4.54%.
In the case of `COc1ccc(C)cc1NC(=O)c1cn(C)c(=O)c2cc(OC)c(OC)cc12`, the “activity change, negative = inhibition” value is reported as inactive: 32.2%.
In the case of `COC(=O)C1=C(C(=O)OC)[C@@H]2N(C)c3ccc(OC)cc3[C@@]23C[C@@H](C(=O)OC)N(C(=O)c2ccc(Br)cc2)C3=N1`, the Potency is reported as inconclusive: 89.1 µM [inhibitor, single point].
In the case of `CN(C)CC(C)(C)CNC(=S)NCc1ccc2c(c1)OCO2`, the Potency is reported as inconclusive: 89.1 µM [inhibitor, single point].
`O=C(O)CCCN1C(=O)/C(=C\c2ccc(-c3nc4ccccc4s3)o2)SC1=S` was tested, and the Potency was active: 15.8 µM.
For `Cc1ccc(-c2csc(N3N=C(c4ccccc4)/C(=C\c4ccc(N(C)C)cc4)C3=O)n2)cc1`, the Potency was active: 50.1 µM.
In the case of `COc1ccc(CCNC(=O)C2CCN(S(=O)(=O)c3cccc4cccnc34)CC2)cc1OC`, the Potency is reported as inconclusive: 22.4 µM [inhibitor, single point].
With `O=C(N/N=C/c1c[nH]c2ccccc12)C1CC1(c1ccccc1)c1ccccc1` (stereo not drawn) the Potency was inconclusive: 14.1 µM [inhibitor, partial curve].
For `CC(C)c1ccc(NC(=O)CSc2nc3ccccc3nc2Cc2ccccc2)cc1`, the “activity change, negative = inhibition” value was inactive: -16.5%.
With `COCCN(C(=O)COC(=O)COc1ccc(Cl)c(C)c1)c1c(N)n(Cc2ccccc2)c(=O)[nH]c1=O` the Potency was inconclusive: 89.1 µM [inhibitor, single point].
With `Cc1ccc(-n2nc3ccc(NC(=O)COc4ccccc4)cc3n2)cc1Cl` the activity change, negative = inhibition was inconclusive: -51.2% [inhibitor].
`Cc1ccc(/C=N/NC(=O)c2cc3ccccc3cc2O)o1` was tested, and the activity change, negative = inhibition was inconclusive: -31.2% [inhibitor].
`CC(=O)OCCN(CCCn1c(-c2ccncc2)nc2ccccc21)c1nc(-c2ccc(C)cc2)cs1` was tested, and the Potency was inconclusive: 3.55 µM [inhibitor, full curve, poor fit].
With `COc1ccc([N+](=O)[O-])cc1NC(=O)Cn1ccc(C(F)(F)F)n1` the Potency was inconclusive: 79.4 µM [inhibitor, single point].
`CCc1oc2c(C)c(O)ccc2c(=O)c1-c1ccc2ccccc2n1` was tested, and the “activity change, negative = inhibition” value was inactive: 26.5%.
With `O=C(CSc1nc2c([nH]c3ccccc32)c(=O)n1-c1cccc(C(F)(F)F)c1)N1CCc2ccccc21` the “activity change, negative = inhibition” value was inactive: 6.88%.
For `O=C(COC(=O)c1ccco1)Nc1nc2c(F)c(F)c(F)cc2s1`, the Potency was active: 50.1 µM.
For `COc1c(OC)c(O)c2c(=O)cc(-c3c(O)cccc3O)oc2c1OC`, the Potency was inconclusive: 25.1 µM [inhibitor, full curve].
In the case of `O=C(CSCc1ccc(Cl)cc1)c1ccco1`, the Potency is reported as inconclusive: 11.2 µM [inhibitor, partial curve, poor fit].
`Cc1cc(C(=O)O)ccc1-n1c(C)cc(/C=C2\SC(=O)NC2=O)c1C` was tested, and the Potency was inconclusive: 100 µM [inhibitor, single point].
In the case of `CC(=O)Nc1ccc(NC(=O)CSc2nnc3c4ccccc4n(C)c3n2)cc1`, the Potency is reported as inconclusive: 39.8 µM [inhibitor, single point].
With `C/C=C\C=C/C(=O)Nc1cccc(C2=NOC3(C2)C[C@@H](C(N)=O)N(C(=O)COc2ccc(Cl)cc2)C3)c1` (stereo partly drawn) the “activity change, negative = inhibition” value was inactive: 7.96%.
In the case of `COc1ccc(CNC(=O)Cn2cc3c(n2)CCCCC3)cc1`, the Potency is reported as inconclusive: 25.1 µM [inhibitor, single point].
`COc1ccc(Cl)cc1NC(=O)C1CCN(S(=O)(=O)c2ccc3c(c2)CC(C)N3C(C)=O)CC1` (stereo not drawn) was tested, and the “activity change, negative = inhibition” value was inactive: -23.1%.
`O=C1NN(c2cccc(Br)c2)C(=O)/C1=C/c1ccc(-c2cc([N+](=O)[O-])ccc2O)o1` was tested, and the activity change, negative = inhibition was inconclusive: -99.3% [inhibitor].
With `CC(=O)N1CCC(C(=O)Nc2ccc(S(=O)(=O)NCCc3ccccc3)cc2)CC1` the Potency was inconclusive: 31.6 µM [inhibitor, single point].
For `O=c1c(C(c2ccccc2)c2c(O)sc3ccccc3c2=O)c(O)sc2ccccc12`, the Potency was active: 31.6 µM.
For `CCN(c1cccc(C)c1)S(=O)(=O)c1nnc(NC(=O)c2ccco2)s1`, the Potency was inconclusive: 22.4 µM [inhibitor, full curve].
For `CCOc1ccc(NC(=O)CN(C)C(=O)CCCOc2ccc(Cl)c(C)c2)cc1OCC`, the “activity change, negative = inhibition” value was inactive: 17.7%.
For `Cc1ccc(CNC(=O)CCCCCn2c(=O)c3sccc3n(CC(=O)Nc3c(C)cc(C)cc3C)c2=O)cc1`, the “activity change, negative = inhibition” value was inactive: 30.8%.
In the case of `Cc1cccc(CNC(=O)c2ccc3oc(=O)n(Cc4ccccc4)c3c2)c1`, the Potency is reported as inconclusive: 89.1 µM [inhibitor, single point].
`Cc1nc2nc(NC(=O)CC(C)C)[nH]n2c(=O)c1Cc1ccccc1` was tested, and the “activity change, negative = inhibition” value was inactive: 0.859%.
With `CCc1ccccc1NC(=O)Cc1ccc(NC(=O)N2CCCCc3ccccc32)cc1` the “activity change, negative = inhibition” value was inactive: 7.27%.
For `O=C(COc1ccccc1)N1CCN(C(=O)c2ccco2)CC1`, the Potency was inconclusive: 89.1 µM [inhibitor, single point].
With `O=C(NNc1ncnc2ccccc12)c1cccc(Cl)c1` the activity change, negative = inhibition was inconclusive: -57.1% [inhibitor].
For `COc1ccc(C)cc1NC(=O)c1cc2c(=O)n(Cc3cccnc3)ccc2nc1C`, the Potency was inconclusive: 56.2 µM [inhibitor, partial curve].
`COc1ccccc1N1CCN(C(CNC(=O)C(=O)NCc2ccc(F)cc2)c2cccnc2)CC1` (stereo not drawn) was tested, and the “activity change, negative = inhibition” value was inactive: 7.25%.
`N=c1c(C(=O)NCc2ccc3c(c2)OCO3)cc2c(=O)n3ccccc3nc2n1CC1CCCO1` (stereo not drawn) was tested, and the activity change, negative = inhibition was inconclusive: -39% [inhibitor].
In the case of `COc1ccc(-n2ncc(C(=O)N3CCN(c4cc(C)ccc4C)CC3)c2C2CCN(C(=O)OC(C)(C)C)CC2)cc1`, the “activity change, negative = inhibition” value is reported as inactive: -0.201%.
`COc1ccc(NC(=O)Nc2nnc(-c3ccncc3)s2)cc1` was tested, and the Potency was inconclusive: 89.1 µM [inhibitor, single point].
On the % scale 0 is the no-effect control and ±100 the full control effect; potency means the concentration at half of the fitted maximal effect.
